# Measured values reported in article PMC5099554 (British Journal of Clinical Pharmacology, 2016).
# Like-named read-outs stand apart in the source and are kept apart here.
# Key:
# [1] = male, human, in vivo, healthy male subjects, plasma; for AUC(0-inf): AUCinf; for AUC(0-inf) / AUC(0-t): geometric mean; for AUC(0-t): AUClast; for Tmax: t max (median)
# [2] = test system: P-gp; conditions: male, human, in vivo, 30 mg, AUClast, geometric mean, healthy male subjects, plasma
# [3] = After FRG, after 2 weeks of fermented red ginseng
# [4] = Before FRG, before fermented red ginseng
compound,measurement,setting,value
"CC(C)(C(=O)O)c1ccc(C(O)CCCN2CCC(C(O)(c3ccccc3)c3ccccc3)CC2)cc1 (centres unmarked) [Fexofenadine, fexofenadine]",AUC(0-inf),[1]; [3],612 ng·h/mL
same,AUC(0-inf),[1]; [4],468 ng·h/mL
same,AUC(0-t),[1]; [3],595 ng·h/mL
same,AUC(0-t),[1]; [4],450 ng·h/mL
same,Tmax,[1]; [3],2 h
same,Tmax,[1]; [4],2 h
same,AUC(0-t),[2]; [3],595 ng·h/mL
same,AUC(0-t),[2]; [4],450 ng·h/mL
